Test results from the supplement of paper PMC12823440, “Inhibitors supercharge kinase turnover through native proteolytic circuits” (Nature, 2025).
Structures can show the parent of a compound that is named as a salt. The list shows a part of the results. Hit calls seldom repeat between salt and free forms of one compound.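 In K562 cells expressing nanoluciferase-fused kinases, luminescence was recorded at 4 h intervals between 2 and 18 h, normalized as percent of control with DMSO at 100% and a positive control at 0%. A significant (2 sigma) signal drop marks a time point as decreased. The authors' rule for a hit is not shown and takes in more than the number of time points.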

The chains behind the UniProt entries cited, without tags or fusion partners. Where a name states a change or a piece, a line headed by the entry shows the natural chain unless it says otherwise.
UniProt P48730: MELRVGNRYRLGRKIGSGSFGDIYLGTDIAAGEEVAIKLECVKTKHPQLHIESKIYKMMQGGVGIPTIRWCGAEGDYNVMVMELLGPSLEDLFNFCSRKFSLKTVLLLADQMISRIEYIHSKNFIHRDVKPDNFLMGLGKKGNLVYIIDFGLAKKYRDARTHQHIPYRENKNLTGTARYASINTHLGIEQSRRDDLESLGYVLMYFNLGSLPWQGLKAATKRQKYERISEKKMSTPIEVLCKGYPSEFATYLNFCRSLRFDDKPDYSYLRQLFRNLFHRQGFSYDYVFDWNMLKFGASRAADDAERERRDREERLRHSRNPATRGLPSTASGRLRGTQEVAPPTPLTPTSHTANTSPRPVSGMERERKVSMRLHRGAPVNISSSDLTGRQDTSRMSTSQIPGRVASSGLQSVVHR

Molecular target: CSNK1D (UniProt P48730)
Test: number of time points (of 5) at which kinase-Nluc abundance scored as decreased, DMSO-normalised (count); higher = more persistent destabilization
Settings: K562; 2-18 h

Compound	number of time points
N#Cc1ccc2[nH]c(O)c(-c3ccc(CN4CCOCC4)cn3)c2c1 (10 µM)	0
CCN(CC)CCCCNc1ncc2cc(-c3cc(OC)cc(OC)c3)c(NC(=O)NC(C)(C)C)nc2n1 (10 µM)	0
Oc1ccc(-c2nc(-c3ccc(F)cc3)c(-c3ccncc3)[nH]2)cc1 (2.5 µM)	0
O=C1NCCc2[nH]c(-c3ccnc(-c4cnc5ccccc5c4)c3)cc21 (10 µM)	0
Cc1cc(N2CCOCC2)cc2[nH]c(-c3c(NC[C@@H](O)c4cccc(Cl)c4)cc[nH]c3=O)nc12 (10 µM)	0
COc1cc(OC)cc(-c2cc3cnc(N)nc3nc2NC(=O)NC(C)(C)C)c1 (10 µM)	0
Cc1ccc(NC(=O)Nc2nnc(Sc3ncnc4cc(OCCCN5CCOCC5)ccc34)s2)cc1 (10 µM)	0
N#C/C(=C\c1ccc(O)c(O)c1)C(=O)NCCCc1ccccc1 (10 µM)	0
Cc1cccc([C@@H](CO)NC(=O)[C@@H](C)N2Cc3ccc(-c4nc(NC5CCOCC5)ncc4Cl)cc3C2=O)c1 [ERK1/2 inhibitor 1] (10 µM)	0
CCOc1ccn(-c2ccc(F)cc2)c(=O)c1C(=O)Nc1ccc(Oc2ccnc(N)c2Cl)c(F)c1 (10 µM)	0
O=c1cc(N2CCOCC2)oc2c(-c3ccccc3)cccc12 (10 µM)	0
O=c1oc2c(O)c(O)cc3c(=O)oc4c(O)c(O)cc1c4c23 [Ellagic acid] (10 µM)	0
C=CC(=O)Nc1ccc2ncnc(Nc3cccc(Br)c3)c2c1 (10 µM)	0
Cc1c(Cn2c(C)nc3c(C(=O)O)cc(N4CCOCC4)cc32)cccc1C(F)(F)F (10 µM)	0
Cc1c[nH]c2nccc(Oc3c(F)cc(Nc4cc(Cl)nc(N)n4)cc3F)c12 (10 µM)	0
CC(C)CC(=O)Nc1n[nH]c2c1CN(C(=O)C1CCN(C)CC1)C2(C)C (2.5 µM)	0
CCN(CCO)CCCOc1ccc2c(Nc3cc(CC(=O)Nc4cccc(F)c4)[nH]n3)ncnc2c1 [Barasertib-HQPA] (10 µM)	0
N#C/C(=C\c1ccc(O)c(O)c1)C(=O)NCc1ccccc1 (10 µM)	0
COc1nccc(-c2c(-c3ccc(F)cc3)ncn2C2CCC(O)CC2)n1 (centres undefined) (10 µM)	0
O=c1c(-c2ccc(O)cc2)coc2cc(O)cc(O)c12 [Genistein] (10 µM)	0

Quoted at random: three records from the list.
Compound	number of time points
Oc1ccc(-c2nc(-c3ccc(F)cc3)c(-c3ccncc3)[nH]2)cc1 (2.5 µM)	0
CC(C)CC(=O)Nc1n[nH]c2c1CN(C(=O)C1CCN(C)CC1)C2(C)C (2.5 µM)	0
COc1cc(OC)cc(-c2cc3cnc(N)nc3nc2NC(=O)NC(C)(C)C)c1 (10 µM)	0

Carrying on.

Compound	number of time points
CCOc1cc2ncc(C#N)c(Nc3ccc(OCc4ccccn4)c(Cl)c3)c2cc1NC(=O)/C=C/CN(C)C [Neratinib] (10 µM)	0
CN1CCC(Nc2ncc3ncnc(Nc4ccc(F)c(Cl)c4)c3n2)CC1 [Falnidamol] (10 µM)	0
O=c1c(O)c(-c2ccc(O)c(O)c2)oc2cc(O)cc(O)c12 [Quercetin (dihydrate)] (10 µM)	0
COc1ccc(C=C(C#N)c2cccnc2)cc1OC (10 µM)	0
Nc1ncnc2c1c(-c1ccc(Oc3ccccc3)cc1)cn2C1CCCC1 (2.5 µM)	0
COc1cc2nc(C)nc(N[C@H](C)c3cc(N)cc(C(F)(F)F)c3)c2cc1O[C@H]1CCOC1 (10 µM)	0
N#CC(=Cc1ccc(O)c(O)c1)C(=O)NCc1ccccc1 (mixture of isomers) (10 µM)	0
O=C1Cc2c([nH]c3ccc(Br)cc23)-c2ncccc2N1 [1-Azakenpaullone] (10 µM)	0
COc1cc2c(Nc3ccc(Br)cc3F)ncnc2cc1OCCn1ccnn1 (10 µM)	0
CNc1nc(-c2ccc3c(N)n[nH]c3c2)cc(N2C[C@@H](C(=O)NC3CCCCC3)CC[C@H]2C)n1 (10 µM)	0
Cc1cc(F)c(C(=O)Nc2cccc(-c3nncn3C(C)C)n2)cc1-n1cnc(C2CC2)c1 [Selonsertib] (10 µM)	0
COc1cc(C)c(Sc2cnc(NC(=O)c3ccc(CNC(C)C(C)(C)C)cc3)s2)cc1C(=O)N1CCN(C(C)=O)CC1 (centres undefined) (2.5 µM)	0
CCN(CC)CCCCNc1ncc2cc(-c3c(Cl)cccc3Cl)c(NC(=O)NC(C)(C)C)nc2n1 (2.5 µM)	2
COc1cc(C=C(C#N)C(N)=O)cc(CSc2nc3ccccc3s2)c1O (10 µM)	0
C[C@]1(O)C[C@@H](c2nc(-c3ccc4ccc(-c5ccccc5)nc4c3)c3c(N)nccn32)C1 [Linsitinib] (2.5 µM)	0
CCN1CCN(c2ccc(Nc3cc(N(C)C(=O)Nc4c(Cl)c(OC)cc(OC)c4Cl)ncn3)cc2)CC1 [Infigratinib] (10 µM)	0
COc1c(CC=C(C)C)c(O)cc2oc(=O)c(-c3ccc(O)cc3O)cc12 [Glycycoumarin] (10 µM)	0
Cc1cc(C(=O)Nc2cccc(C(=O)Nc3cccc(C(F)(F)F)c3)c2)on1 (10 µM)	0
Cn1c(=O)c(Oc2ccc(F)cc2F)cc2cnc(NC3CCOCC3)nc21 [R1487 (Hydrochloride)] (10 µM)	0
